The results in this text go back to US20170260251A1.

Chains of the proteins cited; added tags and fusions are not shown. Lines headed by an entry give the natural chain unless they say otherwise; changes in a name come on top. Residues count along the entry.
UniProt P03952, residues 20-638: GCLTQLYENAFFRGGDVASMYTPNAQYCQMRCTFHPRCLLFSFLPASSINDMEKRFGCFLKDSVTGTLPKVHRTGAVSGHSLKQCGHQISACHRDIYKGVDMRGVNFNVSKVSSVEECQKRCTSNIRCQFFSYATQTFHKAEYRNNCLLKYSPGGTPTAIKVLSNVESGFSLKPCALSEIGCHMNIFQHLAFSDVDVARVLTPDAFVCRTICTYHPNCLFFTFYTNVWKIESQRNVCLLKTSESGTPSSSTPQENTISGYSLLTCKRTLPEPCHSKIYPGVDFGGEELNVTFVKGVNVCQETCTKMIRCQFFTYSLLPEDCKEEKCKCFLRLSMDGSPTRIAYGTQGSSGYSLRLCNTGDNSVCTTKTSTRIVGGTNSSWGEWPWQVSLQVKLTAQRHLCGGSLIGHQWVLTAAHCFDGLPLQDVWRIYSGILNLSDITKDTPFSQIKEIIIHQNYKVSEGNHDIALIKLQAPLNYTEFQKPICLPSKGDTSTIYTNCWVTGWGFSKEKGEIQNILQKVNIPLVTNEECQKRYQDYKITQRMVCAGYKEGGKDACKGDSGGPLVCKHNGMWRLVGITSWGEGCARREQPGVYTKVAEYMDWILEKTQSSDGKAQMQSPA
UniProt A8A271: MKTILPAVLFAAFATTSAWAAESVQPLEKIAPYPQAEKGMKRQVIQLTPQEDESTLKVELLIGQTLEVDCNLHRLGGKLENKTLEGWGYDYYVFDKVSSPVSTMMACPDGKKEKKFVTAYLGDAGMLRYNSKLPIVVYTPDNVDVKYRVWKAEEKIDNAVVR

These are yes or no findings as the source states them, for the method shown. Some entries that bind do so weakly or less than the wild type.

The target in one assay is human kallikrein (human) (UniProt P03952). Kind of assay: sentence summing up the Ki results; species not given.
Assay [1] addresses T1, human coagulation factor XIIa (human) (UniProt P00748).
T1 sequence (looked up): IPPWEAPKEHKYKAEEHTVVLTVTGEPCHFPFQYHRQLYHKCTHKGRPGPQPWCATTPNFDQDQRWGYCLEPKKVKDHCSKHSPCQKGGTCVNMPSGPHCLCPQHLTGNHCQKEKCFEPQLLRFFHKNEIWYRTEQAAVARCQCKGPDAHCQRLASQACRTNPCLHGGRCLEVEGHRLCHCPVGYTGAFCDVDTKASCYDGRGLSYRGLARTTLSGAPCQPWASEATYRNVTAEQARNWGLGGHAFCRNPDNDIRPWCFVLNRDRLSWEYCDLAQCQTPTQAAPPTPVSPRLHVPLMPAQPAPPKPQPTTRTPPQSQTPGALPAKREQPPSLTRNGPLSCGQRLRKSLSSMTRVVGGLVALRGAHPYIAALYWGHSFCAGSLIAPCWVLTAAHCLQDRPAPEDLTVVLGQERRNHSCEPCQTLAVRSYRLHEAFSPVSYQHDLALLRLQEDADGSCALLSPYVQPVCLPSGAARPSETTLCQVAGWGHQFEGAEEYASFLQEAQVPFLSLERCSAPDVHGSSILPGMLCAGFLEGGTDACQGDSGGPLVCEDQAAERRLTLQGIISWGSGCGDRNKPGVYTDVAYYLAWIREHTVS
Described as above.

As for “Ecotin variant NB142 (M84R/V81R) (from UniProt A8A271 21-162)”, the binding result in the assay with human kallikrein (human) was “binds”. Turning to “wild type Ecotin (NB101) (from UniProt A8A271 21-162)”, the binding entry (in assay [1]; with human kallikrein (human)) was “binds” in each case.
